Data: the supplement of paper PMC8728848
Some of the results follow.

Tests used:
Assay in all cases: glycan array binding signal (z-score within array); higher = stronger binding
Settings in all cases: glycan notation: IUPAC condensed, linker removed
[1] = biological target: Fuc(a1-2)Gal(b1-4)GlcNAc(b1-3)Gal(b1-4)GlcNAc(b1-3)Gal(b1-4)GlcNAc
In short: (§1)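 Negative Z-scores can be read as non-binding. The Z-score is calculated within each array and then averaged across arrays of one protein sequence at different concentrations or buffers and across linkers. Arrays, 3228 in all, were curated from the Consortium for Functional Glycomics database and kept only where the protein sequence was available.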

[2] = biological target: Fuc(a1-2)Gal(b1-4)GlcNAc(b1-3)GalNAc
In short: as §1

[3] = biological target: Fuc(a1-2)Gal(b1-4)GlcNAc(b1-3)[Fuc(a1-2)Gal(b1-4)GlcNAc(b1-6)]GalNAc
In short: as §1

[4] = biological target: Fuc(a1-2)Gal(b1-4)GlcNAc(b1-3)[Fuc(a1-3)[Gal(b1-4)]GlcNAc(b1-6)]Gal(b1-4)Glc
In short: as §1

[5] = biological target: Fuc(a1-2)Gal(b1-4)GlcNAc(b1-6)GalNAc
In short: as §1

[6] = biological target: Fuc(a1-2)Gal(b1-4)GlcNAc6S
In short: as §1

[7] = biological target: Fuc(a1-2)Gal(b1-4)[Fuc(a1-3)]GlcNAc
In short: as §1

[8] = biological target: Fuc(a1-2)Gal(b1-4)[Fuc(a1-3)]GlcNAc(b1-2)Man(a1-3)[Fuc(a1-2)Gal(b1-4)[Fuc(a1-3)]GlcNAc(b1-2)Man(a1-6)]Man(b1-4)GlcNAc(b1-4)[Fuc(a1-6)]GlcNAc
In short: as §1

[9] = biological target: Fuc(a1-2)Gal(b1-4)[Fuc(a1-3)]GlcNAc(b1-2)[Fuc(a1-2)Gal(b1-4)[Fuc(a1-3)]GlcNAc(b1-4)]Man(a1-3)[Fuc(a1-2)Gal(b1-4)[Fuc(a1-3)]GlcNAc(b1-2)Man(a1-6)]Man(b1-4)GlcNAc(b1-4)GlcNAc
In short: as §1

[10] = biological target: Fuc(a1-2)Gal(b1-4)[Fuc(a1-3)]GlcNAc(b1-3)Gal(b1-4)[Fuc(a1-3)]GlcNAc
In short: as §1

[11] = biological target: Fuc(a1-2)Gal(b1-4)[Fuc(a1-3)]GlcNAc(b1-3)Gal(b1-4)[Fuc(a1-3)]GlcNAc(b1-3)Gal(b1-4)[Fuc(a1-3)]GlcNAc
In short: as §1

[12] = biological target: Fuc(a1-2)Gal(b1-4)[Fuc(a1-3)]GlcNAc(b1-3)GalNAc
In short: as §1

[13] = biological target: Fuc(a1-2)Gal(b1-4)[Fuc(a1-3)]GlcNAc(b1-3)[Neu5Ac(a2-6)Gal(b1-4)GlcNAc(b1-6)]Gal(b1-4)Glc
In short: as §1

[14] = biological target: Fuc(a1-2)Gal3S(b1-4)GlcNAc
In short: as §1

[15] = biological target: Fuc(a1-2)Gal6S(b1-3)GlcNAc
In short: as §1

[16] = biological target: Fuc(a1-2)Gal6S(b1-3)GlcNAc6S
In short: as §1

[17] = biological target: Fuc(a1-2)Gal6S(b1-4)Glc
In short: as §1

[18] = biological target: Fuc(a1-2)Gal6S(b1-4)Glc6S
In short: as §1

[19] = biological target: Fuc(a1-2)[Gal(a1-3)]Gal
In short: as §1

[20] = biological target: Fuc(a1-2)[Gal(a1-3)]Gal(b1-3)GalNAc
In short: as §1

[21] = biological target: Fuc(a1-2)[Gal(a1-3)]Gal(b1-3)GalNAc(b1-3)Gal(a1-4)Gal(b1-4)Glc
In short: as §1

[22] = biological target: Fuc(a1-2)[Gal(a1-3)]Gal(b1-3)GlcNAc
In short: as §1

[23] = biological target: Fuc(a1-2)[Gal(a1-3)]Gal(b1-3)GlcNAc(b1-2)Man(a1-3)[Fuc(a1-2)[Gal(a1-3)]Gal(b1-3)GlcNAc(b1-2)Man(a1-6)]Man(b1-4)GlcNAc(b1-4)GlcNAc
In short: as §1

[24] = biological target: Fuc(a1-2)[Gal(a1-3)]Gal(b1-3)GlcNAc(b1-2)Man(a1-3)[Fuc(a1-2)[Gal(a1-3)]Gal(b1-3)GlcNAc(b1-2)Man(a1-6)]Man(b1-4)GlcNAc(b1-4)[Fuc(a1-6)]GlcNAc
In short: as §1

[25] = biological target: Fuc(a1-2)[Gal(a1-3)]Gal(b1-3)GlcNAc(b1-3)GalNAc
In short: as §1

[26] = biological target: Fuc(a1-2)[Gal(a1-3)]Gal(b1-3)GlcNAc(b1-6)GalNAc
In short: as §1

[27] = biological target: Fuc(a1-2)[Gal(a1-3)]Gal(b1-4)Glc
In short: as §1

[28] = biological target: Fuc(a1-2)[Gal(a1-3)]Gal(b1-4)GlcNAc
In short: as §1

[29] = biological target: Fuc(a1-2)[Gal(a1-3)]Gal(b1-4)GlcNAc(b1-2)Man
In short: as §1

[30] = biological target: Fuc(a1-2)[Gal(a1-3)]Gal(b1-4)GlcNAc(b1-2)Man(a1-3)[Fuc(a1-2)[Gal(a1-3)]Gal(b1-4)GlcNAc(b1-2)Man(a1-6)]Man(b1-4)GlcNAc(b1-4)GlcNAc
In short: as §1

B1: Sp8391B-bot-388-20-388 (Bacteroides ovatus) (protein)
chain: GCQNNDENEQHYDNKLFISASNFTKEILFKAGDTNVETGLSVAIAKPEEHDIKVTMSPAPELLSTYKLAYYDETAVLLSEEHYSMPETSTTIKSGSIVSPELPIEFINTGELDIKTTYVLPVTIKSVEGIGVLQSAKTYYYVFRGASLINVVCNISRNRAYPDFKNDSKFNNLTENTMEILFKANSFPNTLNTLMGIESNYLLRIGDATIPNNQLQVATSVNNCTSADLQLESGKWYHVAVAFNKGNVKVYINGVEKLSGSTGKSSVSLGAKHTNEEDGSRCFWVGYSYKDDRYFDGVVSEVRIWNRALTAEEIQATNHFYTIEPESEGLIAYWKFDEGSGTVAKDYSVSGYDLTIEKEPKWESVSLPQ
[1]
  glycan array binding signal (z-score): 0.169
[2]
  glycan array binding signal (z-score): -0.606
[3]
  glycan array binding signal (z-score): 0.788
[4]
  glycan array binding signal (z-score): 0.172
[5]
  glycan array binding signal (z-score): 0.145
[6]
  glycan array binding signal (z-score): 0.092
[7]
  glycan array binding signal (z-score): -0.307
[8]
  glycan array binding signal (z-score): -0.325
[9]
  glycan array binding signal (z-score): 0.302
[10]
  glycan array binding signal (z-score): -0.681
[11]
  glycan array binding signal (z-score): 0.611
[12]
  glycan array binding signal (z-score): 0.086
[13]
  glycan array binding signal (z-score): 0.719
[14]
  glycan array binding signal (z-score): -0.05
[15]
  glycan array binding signal (z-score): 0.457
[16]
  glycan array binding signal (z-score): -0.154
[17]
  glycan array binding signal (z-score): -0.727
[18]
  glycan array binding signal (z-score): -0.797
[19]
  glycan array binding signal (z-score): -0.086
[20]
  glycan array binding signal (z-score): 0.904
[21]
  glycan array binding signal (z-score): 0.514
[22]
  glycan array binding signal (z-score): -0.602
[23]
  glycan array binding signal (z-score): 0.366
[24]
  glycan array binding signal (z-score): -0.214
[25]
  glycan array binding signal (z-score): 0.054
[26]
  glycan array binding signal (z-score): -0.779
[27]
  glycan array binding signal (z-score): 0.106
[28]
  glycan array binding signal (z-score): -0.199
[29]
  glycan array binding signal (z-score): 0.057
[30]
  glycan array binding signal (z-score): 0.64
